No constants are given. Whether binding was seen depends on the method and setting. Binding seen in cells or lysates may run through a third protein. A yes stands for co-enrichment or nearness to the bait. Other partners may have been found. For part of these data: No binding means not detected with the bait. For part of these data: Where a sequence is shown, tags or fusion partners need not be part of it.
Columns and labels:
Assay in all cases: affinity purification with mass spectrometry
[1] = biological target: T1, YFP-RABA5c (Arabidopsis thaliana) (UniProt P28187)
T1 sequence: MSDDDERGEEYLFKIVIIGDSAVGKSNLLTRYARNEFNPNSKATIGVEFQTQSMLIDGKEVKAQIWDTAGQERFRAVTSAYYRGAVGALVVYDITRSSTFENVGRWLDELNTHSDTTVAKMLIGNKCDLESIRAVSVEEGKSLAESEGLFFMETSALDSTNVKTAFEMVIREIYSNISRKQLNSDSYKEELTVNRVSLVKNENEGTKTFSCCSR

By UniProt entry, the sequences of proteins in these tests, tags left out.
UniProt Q9LS94: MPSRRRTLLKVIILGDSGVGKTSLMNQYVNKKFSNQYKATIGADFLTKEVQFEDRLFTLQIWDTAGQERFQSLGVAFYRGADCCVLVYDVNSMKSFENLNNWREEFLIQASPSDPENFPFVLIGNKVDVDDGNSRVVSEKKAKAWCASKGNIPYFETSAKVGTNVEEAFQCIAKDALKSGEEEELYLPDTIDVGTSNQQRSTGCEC

[2] = biological target: T2, YFP-RABA2a (Arabidopsis thaliana) (UniProt O04486)
T2 sequence: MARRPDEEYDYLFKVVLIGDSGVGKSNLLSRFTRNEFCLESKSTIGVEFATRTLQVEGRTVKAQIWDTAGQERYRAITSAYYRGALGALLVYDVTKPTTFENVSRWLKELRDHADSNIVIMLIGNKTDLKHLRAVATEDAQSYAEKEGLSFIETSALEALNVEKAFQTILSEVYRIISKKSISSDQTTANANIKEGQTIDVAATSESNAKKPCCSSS

[3] = biological target: YFP-RABG3f (Arabidopsis thaliana) (UniProt Q9LS94)

B1: NET4B, endogenous in Arabidopsis roots (protein, UniProt Q84VY2 1-517)
chain: MASSTAQSKKQFKRSMTKKSHSWWWDSHNCPKNSKWLAENLEKMDDRVNHMLKLIEEDADSFAKKAQMYFQKRPELIQLVEEFYRMYRALAERYDQASGELQKNHTSEIQSQSSLEISSPTKEKLSRRQSSHKEEEDSSSLTDSGSDSDHSSANDEDGDEALIRRMAELELELQETKQKLLLQQESVDGDNNVDLLHKITTYEGELKEANEKMRMHEDEIANLKNQLQSFMSFDTEDHLGAEQKSVDLDKEDTKEDAVATKVLALEEELSIAKEKLQHFEKETYSLKNELEIGKAAEEKLKSLQHELELAQRDADTYINKLNAEKKEVLKLQERLAMVKTSLQDRDNEIRALKTAVSDAEQKIFPEKAQIKGEMSKMLEERSQLGEQLRELESHIRLIKEEKAETEEKLRGGTEKISGMRDESNVLREEIGKREEKIKETEKHMEELHMEQVRLRRRSSELTEEVERTRVSASEMAEQKREAIRQLCMSLDHYRDGYDRLWRVVAGHKSKRVVVLST
In the case of B1, the binding [1] is reported as “no binding”, the binding [2] is reported as “no binding” and the binding [3] is reported as “binds”.
